Source: PMC10857571
These are yes or no findings as the source states them, for the method shown. Binding seen in cells or lysates may run through a third protein. Some binding calls cover weakened binding; strength is not graded here.

Legend:
Experiment in all cases: co-IP; endogenous proteins in THP-1 cell lysates (100 μg protein), 2 μg antibody, TENDS buffer (20 mM Tris HCl pH 8.0, 1 mM EDTA, 2 mM DTT, 0.25 M sucrose), 4°C, protein A/G-agarose, immunoblot; cells exposed to vehicle, olaparib, oxLDL (100 μg/mL, 24 hr) or oxLDL with olaparib; normal rabbit IgG as control
[1] = molecular target: T1, RelB (human (endogenous in THP-1)), Q01201; conditions: remark: other sources report otherwise
T1 chain: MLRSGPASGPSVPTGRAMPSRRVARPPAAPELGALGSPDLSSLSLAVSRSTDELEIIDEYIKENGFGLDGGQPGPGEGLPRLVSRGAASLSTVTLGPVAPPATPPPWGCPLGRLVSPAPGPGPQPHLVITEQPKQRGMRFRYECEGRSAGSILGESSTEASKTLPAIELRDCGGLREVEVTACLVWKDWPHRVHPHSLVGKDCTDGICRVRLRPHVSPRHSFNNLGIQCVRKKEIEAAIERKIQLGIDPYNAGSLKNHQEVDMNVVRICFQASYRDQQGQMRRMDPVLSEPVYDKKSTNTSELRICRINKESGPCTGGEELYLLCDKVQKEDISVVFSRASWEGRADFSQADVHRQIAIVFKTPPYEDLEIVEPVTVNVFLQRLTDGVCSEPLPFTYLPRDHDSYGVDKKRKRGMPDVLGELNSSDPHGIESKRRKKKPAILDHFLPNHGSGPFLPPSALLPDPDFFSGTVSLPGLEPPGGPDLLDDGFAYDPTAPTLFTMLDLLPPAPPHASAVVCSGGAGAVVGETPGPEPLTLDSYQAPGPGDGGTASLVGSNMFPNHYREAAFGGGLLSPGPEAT

[2] = molecular target: RelA (p65) (human (endogenous in THP-1)), Q04206; conditions: remark: other sources report otherwise
[3] = molecular target: T2, IκBα (human (endogenous in THP-1)), P25963; conditions: remark: other sources report otherwise
T2 chain: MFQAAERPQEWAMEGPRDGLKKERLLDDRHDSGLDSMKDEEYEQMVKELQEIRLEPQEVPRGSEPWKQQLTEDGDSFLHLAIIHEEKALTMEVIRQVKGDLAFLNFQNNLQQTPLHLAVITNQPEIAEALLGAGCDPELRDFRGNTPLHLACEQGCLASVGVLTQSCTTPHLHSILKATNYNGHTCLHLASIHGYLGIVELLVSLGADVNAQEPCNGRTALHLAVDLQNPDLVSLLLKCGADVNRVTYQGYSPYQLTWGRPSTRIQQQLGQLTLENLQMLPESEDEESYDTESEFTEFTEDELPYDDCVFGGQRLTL

[4] = molecular target: T3, RelB (human (endogenous in THP-1)) (UniProt Q01201)
T3 sequence: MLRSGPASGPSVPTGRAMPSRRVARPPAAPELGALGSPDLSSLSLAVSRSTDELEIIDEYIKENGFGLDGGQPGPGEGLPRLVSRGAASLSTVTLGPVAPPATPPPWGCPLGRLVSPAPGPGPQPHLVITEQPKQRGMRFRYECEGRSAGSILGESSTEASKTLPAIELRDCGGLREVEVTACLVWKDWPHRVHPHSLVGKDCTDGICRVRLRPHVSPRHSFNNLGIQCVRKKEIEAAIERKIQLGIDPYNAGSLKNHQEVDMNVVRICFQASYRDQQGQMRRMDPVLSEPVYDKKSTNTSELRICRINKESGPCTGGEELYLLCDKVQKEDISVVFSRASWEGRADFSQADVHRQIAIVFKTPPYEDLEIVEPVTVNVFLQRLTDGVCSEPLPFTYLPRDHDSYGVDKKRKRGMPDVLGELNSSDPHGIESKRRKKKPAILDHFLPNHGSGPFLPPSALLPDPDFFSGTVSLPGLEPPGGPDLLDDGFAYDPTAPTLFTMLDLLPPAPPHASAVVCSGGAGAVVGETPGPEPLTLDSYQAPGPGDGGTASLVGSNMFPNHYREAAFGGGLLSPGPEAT

[5] = molecular target: IκBα (human (endogenous in THP-1)) (UniProt P25963)

B1: IκBα, P25963 1-317 (protein)
chain: MFQAAERPQEWAMEGPRDGLKKERLLDDRHDSGLDSMKDEEYEQMVKELQEIRLEPQEVPRGSEPWKQQLTEDGDSFLHLAIIHEEKALTMEVIRQVKGDLAFLNFQNNLQQTPLHLAVITNQPEIAEALLGAGCDPELRDFRGNTPLHLACEQGCLASVGVLTQSCTTPHLHSILKATNYNGHTCLHLASIHGYLGIVELLVSLGADVNAQEPCNGRTALHLAVDLQNPDLVSLLLKCGADVNRVTYQGYSPYQLTWGRPSTRIQQQLGQLTLENLQMLPESEDEESYDTESEFTEFTEDELPYDDCVFGGQRLTL
With B1 the binding [1] was “binds” and the binding [2] was “binds”.

B2: RelB, Q01201 1-579 (protein)
chain: MLRSGPASGPSVPTGRAMPSRRVARPPAAPELGALGSPDLSSLSLAVSRSTDELEIIDEYIKENGFGLDGGQPGPGEGLPRLVSRGAASLSTVTLGPVAPPATPPPWGCPLGRLVSPAPGPGPQPHLVITEQPKQRGMRFRYECEGRSAGSILGESSTEASKTLPAIELRDCGGLREVEVTACLVWKDWPHRVHPHSLVGKDCTDGICRVRLRPHVSPRHSFNNLGIQCVRKKEIEAAIERKIQLGIDPYNAGSLKNHQEVDMNVVRICFQASYRDQQGQMRRMDPVLSEPVYDKKSTNTSELRICRINKESGPCTGGEELYLLCDKVQKEDISVVFSRASWEGRADFSQADVHRQIAIVFKTPPYEDLEIVEPVTVNVFLQRLTDGVCSEPLPFTYLPRDHDSYGVDKKRKRGMPDVLGELNSSDPHGIESKRRKKKPAILDHFLPNHGSGPFLPPSALLPDPDFFSGTVSLPGLEPPGGPDLLDDGFAYDPTAPTLFTMLDLLPPAPPHASAVVCSGGAGAVVGETPGPEPLTLDSYQAPGPGDGGTASLVGSNMFPNHYREAAFGGGLLSPGPEAT
For B2, the binding [3] was “binds”.

B3: NF-κB2 p52 (protein, UniProt Q00653 1-454)
chain: MESCYNPGLDGIIEYDDFKLNSSIVEPKEPAPETADGPYLVIVEQPKQRGFRFRYGCEGPSHGGLPGASSEKGRKTYPTVKICNYEGPAKIEVDLVTHSDPPRAHAHSLVGKQCSELGICAVSVGPKDMTAQFNNLGVLHVTKKNMMGTMIQKLQRQRLRSRPQGLTEAEQRELEQEAKELKKVMDLSIVRLRFSAFLRASDGSFSLPLKPVISQPIHDSKSPGASNLKISRMDKTAGSVRGGDEVYLLCDKVQKDDIEVRFYEDDENGWQAFGDFSPTDVHKQYAIVFRTPPYHKMKIERPVTVFLQLKRKRGGDVSDSKQFTYYPLVEDKEEVQRKRRKALPTFSQPFGGGSHMGGGSGGAAGGYGGAGGGGSLGFFPSSLAYSPYQSGAGPMGCYPGGGGGAQMAATVPSRDSGEEAAEPSAPSRTPQCEPQAPEMLQRAREYNARLFGLA
For B3, the binding [4] was “binds” and the binding [5] was “binds”.
